We go through three substances from paper doi:10.1101/2022.11.06.515368.

Amino acid sequences for entries named in this document (tags omitted).
UniProt O95071: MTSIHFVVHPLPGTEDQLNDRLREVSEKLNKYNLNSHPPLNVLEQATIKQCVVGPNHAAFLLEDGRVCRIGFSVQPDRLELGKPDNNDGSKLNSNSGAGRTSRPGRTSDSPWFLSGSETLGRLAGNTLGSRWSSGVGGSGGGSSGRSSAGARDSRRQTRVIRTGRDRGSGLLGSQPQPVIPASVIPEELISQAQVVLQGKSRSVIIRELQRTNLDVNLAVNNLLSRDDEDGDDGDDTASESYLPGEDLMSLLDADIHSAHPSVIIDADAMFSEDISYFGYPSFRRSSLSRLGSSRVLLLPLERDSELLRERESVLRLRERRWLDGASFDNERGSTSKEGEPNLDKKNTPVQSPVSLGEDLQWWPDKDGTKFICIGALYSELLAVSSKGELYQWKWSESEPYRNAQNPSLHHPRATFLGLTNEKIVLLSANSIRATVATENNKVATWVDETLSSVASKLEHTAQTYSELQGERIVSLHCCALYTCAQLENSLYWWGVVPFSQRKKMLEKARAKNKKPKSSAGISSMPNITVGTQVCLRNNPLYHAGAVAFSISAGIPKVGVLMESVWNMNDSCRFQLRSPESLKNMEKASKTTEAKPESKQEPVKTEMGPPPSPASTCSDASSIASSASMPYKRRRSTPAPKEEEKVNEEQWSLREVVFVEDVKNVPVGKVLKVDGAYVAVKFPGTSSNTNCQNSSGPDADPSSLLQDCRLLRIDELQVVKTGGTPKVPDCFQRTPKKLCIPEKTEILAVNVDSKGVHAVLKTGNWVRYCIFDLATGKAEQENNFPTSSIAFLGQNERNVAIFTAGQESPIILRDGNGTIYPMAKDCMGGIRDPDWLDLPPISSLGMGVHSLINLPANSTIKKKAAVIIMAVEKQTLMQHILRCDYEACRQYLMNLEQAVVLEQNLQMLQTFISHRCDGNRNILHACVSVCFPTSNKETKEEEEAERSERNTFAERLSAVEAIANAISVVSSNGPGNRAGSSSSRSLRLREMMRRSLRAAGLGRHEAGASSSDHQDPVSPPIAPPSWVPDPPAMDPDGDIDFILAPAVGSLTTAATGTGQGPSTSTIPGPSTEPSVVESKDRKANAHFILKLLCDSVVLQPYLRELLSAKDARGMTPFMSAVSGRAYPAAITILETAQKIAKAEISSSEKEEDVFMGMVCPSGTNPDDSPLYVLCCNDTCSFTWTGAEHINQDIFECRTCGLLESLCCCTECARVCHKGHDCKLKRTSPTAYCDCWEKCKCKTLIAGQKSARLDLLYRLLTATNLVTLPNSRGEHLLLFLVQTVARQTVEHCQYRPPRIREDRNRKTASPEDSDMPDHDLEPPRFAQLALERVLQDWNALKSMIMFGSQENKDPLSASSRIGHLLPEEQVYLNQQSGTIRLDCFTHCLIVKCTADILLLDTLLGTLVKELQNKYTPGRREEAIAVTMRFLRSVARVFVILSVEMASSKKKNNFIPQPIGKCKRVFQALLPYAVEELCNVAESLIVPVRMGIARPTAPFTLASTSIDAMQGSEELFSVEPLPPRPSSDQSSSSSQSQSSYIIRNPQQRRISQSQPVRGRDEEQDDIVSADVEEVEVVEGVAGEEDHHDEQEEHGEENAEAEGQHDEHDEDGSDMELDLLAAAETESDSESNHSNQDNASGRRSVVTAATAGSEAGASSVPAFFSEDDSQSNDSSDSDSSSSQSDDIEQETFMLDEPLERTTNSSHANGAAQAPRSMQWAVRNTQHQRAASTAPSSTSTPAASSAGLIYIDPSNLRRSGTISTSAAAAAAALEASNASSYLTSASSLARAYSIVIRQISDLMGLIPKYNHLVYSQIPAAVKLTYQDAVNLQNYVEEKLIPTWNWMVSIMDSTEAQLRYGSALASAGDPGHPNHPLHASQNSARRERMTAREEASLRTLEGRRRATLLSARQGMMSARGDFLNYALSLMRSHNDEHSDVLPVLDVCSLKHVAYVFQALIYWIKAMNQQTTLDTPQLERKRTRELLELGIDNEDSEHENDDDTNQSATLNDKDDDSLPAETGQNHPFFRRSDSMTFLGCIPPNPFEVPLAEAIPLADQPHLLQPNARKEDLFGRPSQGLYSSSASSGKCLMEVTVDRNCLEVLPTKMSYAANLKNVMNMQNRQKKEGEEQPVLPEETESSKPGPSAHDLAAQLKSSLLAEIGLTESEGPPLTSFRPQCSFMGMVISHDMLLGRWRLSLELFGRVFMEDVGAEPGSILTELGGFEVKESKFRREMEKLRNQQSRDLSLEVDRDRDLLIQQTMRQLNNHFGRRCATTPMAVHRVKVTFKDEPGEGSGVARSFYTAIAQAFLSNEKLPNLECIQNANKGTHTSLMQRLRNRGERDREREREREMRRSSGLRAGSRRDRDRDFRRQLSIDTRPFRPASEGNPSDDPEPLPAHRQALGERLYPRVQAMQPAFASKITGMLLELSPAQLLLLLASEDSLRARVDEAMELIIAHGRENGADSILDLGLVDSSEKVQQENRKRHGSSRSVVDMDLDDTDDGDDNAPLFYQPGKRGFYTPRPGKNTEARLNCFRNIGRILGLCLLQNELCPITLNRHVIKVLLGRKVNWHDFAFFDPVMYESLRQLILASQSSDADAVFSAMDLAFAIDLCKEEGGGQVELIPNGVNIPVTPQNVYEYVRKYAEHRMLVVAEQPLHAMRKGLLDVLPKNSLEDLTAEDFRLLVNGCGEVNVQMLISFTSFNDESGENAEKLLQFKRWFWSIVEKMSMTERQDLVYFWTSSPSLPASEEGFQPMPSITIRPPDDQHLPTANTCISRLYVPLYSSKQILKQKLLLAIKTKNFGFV
UniProt Q96EZ8: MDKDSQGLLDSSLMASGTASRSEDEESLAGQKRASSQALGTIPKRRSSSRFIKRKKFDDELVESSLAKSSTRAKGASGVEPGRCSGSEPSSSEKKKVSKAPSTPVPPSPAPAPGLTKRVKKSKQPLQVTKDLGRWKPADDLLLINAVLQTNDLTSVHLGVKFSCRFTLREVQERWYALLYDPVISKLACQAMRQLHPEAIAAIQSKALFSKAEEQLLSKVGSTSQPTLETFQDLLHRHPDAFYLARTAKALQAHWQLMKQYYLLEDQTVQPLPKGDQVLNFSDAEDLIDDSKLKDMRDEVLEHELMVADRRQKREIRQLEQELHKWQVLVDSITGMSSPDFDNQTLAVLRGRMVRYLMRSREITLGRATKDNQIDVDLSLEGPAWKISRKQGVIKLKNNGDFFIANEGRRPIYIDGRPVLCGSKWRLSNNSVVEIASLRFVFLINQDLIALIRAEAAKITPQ
UniProt O00139: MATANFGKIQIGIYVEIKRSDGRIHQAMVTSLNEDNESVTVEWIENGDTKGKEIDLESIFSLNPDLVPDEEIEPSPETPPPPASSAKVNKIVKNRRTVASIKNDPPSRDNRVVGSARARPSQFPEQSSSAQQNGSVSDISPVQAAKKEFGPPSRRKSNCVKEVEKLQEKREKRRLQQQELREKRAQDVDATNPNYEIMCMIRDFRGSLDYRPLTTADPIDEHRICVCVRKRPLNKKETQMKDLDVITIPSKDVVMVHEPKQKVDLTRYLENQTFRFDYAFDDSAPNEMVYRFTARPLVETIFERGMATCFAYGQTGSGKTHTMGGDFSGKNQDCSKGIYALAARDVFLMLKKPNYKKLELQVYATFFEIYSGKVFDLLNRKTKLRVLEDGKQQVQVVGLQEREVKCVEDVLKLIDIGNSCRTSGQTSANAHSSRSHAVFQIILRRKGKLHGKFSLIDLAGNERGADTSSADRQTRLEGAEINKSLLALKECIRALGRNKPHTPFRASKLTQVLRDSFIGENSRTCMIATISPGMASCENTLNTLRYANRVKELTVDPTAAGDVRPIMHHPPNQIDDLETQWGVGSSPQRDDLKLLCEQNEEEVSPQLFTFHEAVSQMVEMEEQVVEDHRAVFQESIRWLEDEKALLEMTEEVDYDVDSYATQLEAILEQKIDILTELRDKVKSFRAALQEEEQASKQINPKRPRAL
UniProt P01106: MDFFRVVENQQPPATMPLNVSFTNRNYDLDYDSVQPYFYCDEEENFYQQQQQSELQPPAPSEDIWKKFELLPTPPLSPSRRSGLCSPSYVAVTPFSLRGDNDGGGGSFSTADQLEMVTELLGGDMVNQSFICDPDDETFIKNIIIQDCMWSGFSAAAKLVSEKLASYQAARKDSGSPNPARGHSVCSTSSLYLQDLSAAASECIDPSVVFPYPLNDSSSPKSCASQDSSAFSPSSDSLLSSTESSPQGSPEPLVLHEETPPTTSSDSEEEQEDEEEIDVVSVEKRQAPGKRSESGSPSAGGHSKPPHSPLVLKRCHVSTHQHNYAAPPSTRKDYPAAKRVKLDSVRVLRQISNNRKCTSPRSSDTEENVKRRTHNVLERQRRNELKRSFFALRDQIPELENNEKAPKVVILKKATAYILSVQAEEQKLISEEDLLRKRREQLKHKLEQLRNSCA

Assay in all cases: co-IP
Test [1] concerns the target endogenous UBR5 in hESCs (human (endogenous in hESCs)) (UniProt O95071).
Test [2] addresses endogenously FLAG-tagged UBR5 (human) (UniProt O95071).
The target of the next test is FLAG-tagged MCRS1 (UniProt Q96EZ8).
A further test concerns the target T1, FLAG-tagged CCDC85B (UniProt Q15834).
T1 sequence: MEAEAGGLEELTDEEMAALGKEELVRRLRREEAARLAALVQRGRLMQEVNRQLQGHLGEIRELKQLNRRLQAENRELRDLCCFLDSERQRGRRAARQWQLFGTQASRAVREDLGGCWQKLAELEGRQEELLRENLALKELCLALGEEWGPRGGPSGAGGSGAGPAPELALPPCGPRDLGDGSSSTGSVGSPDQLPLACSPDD

Results are given in words; binding and its absence hold for the method and conditions named. In cells and extracts the contact can be indirect. Some results given as binding are weak or reduced against the parent protein; the word gives no strength. For some of these results: Where a sequence is shown, tags or fusion partners need not be part of it.

As for KIF2A (from UniProt O00139 1-706), the binding result in test [1] and in test [2] was “binds” each time. As for “endogenous c-MYC (from UniProt P01106 1-454)”, the binding entry in the test with FLAG-tagged MCRS1 was “binds”. Take MCRS1 (from UniProt Q96EZ8 1-462): in the test with FLAG-tagged CCDC85B, the binding entry is recorded as “binds”.
